## Assay results

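A panel of P. falciparum strains inside erythrocytes is exposed to compounds for three days, then a DNA-binding dye reports the amount of parasite DNA.
Each compound was titrated across a series from about 0.000037 to 29 µM.
The number is the fitted AC50, the concentration giving a half-maximal change in signal; a lower value means higher potency, whether the curve shows a decrease or an increase.
Calls follow the curve class and fit quality: every row here is inconclusive, covering signal-raising curves and weak, poorly fitted, partial or highest-dose-only inhibition curves.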

Values are in µM.
All entries here are filed as inconclusive.
These entries are mostly ones the record files as inconclusive; other results of the assay are not listed here.
A potency from a partial, single-point or poor curve is only a rough figure.

* CNC(=O)[C@H](Cc1c[nH]c2ccccc12)NC(=O)[C@@H](CC(=O)NO)CC(C)C [CP215] : potency 19.01 µM (inhibitor, single point)
* CNC(=O)[C@H](Cc1c[nH]c2ccccc12)NC(=O)[C@@H](CC(=O)NO)CC(C)C [ECU] : potency 17.78 µM (inhibitor, single point)
* CNC(=O)[C@H](Cc1c[nH]c2ccccc12)NC(=O)[C@@H](CC(=O)NO)CC(C)C [CP247] : potency 1.995 µM (inhibitor, full curve, poor fit)
* CNC(=O)[C@H](Cc1c[nH]c2ccccc12)NC(=O)[C@@H](CC(=O)NO)CC(C)C [CP335] : potency 19.01 µM (inhibitor, single point)
* CNC(=O)[C@H](Cc1c[nH]c2ccccc12)NC(=O)[C@@H](CC(=O)NO)CC(C)C [CP217] : potency 10 µM (inhibitor, single point)
* CNC(=O)[C@H](Cc1c[nH]c2ccccc12)NC(=O)[C@@H](CC(=O)NO)CC(C)C [TAB165] : potency 10 µM (inhibitor, partial curve)
* CNC(=O)[C@H](Cc1c[nH]c2ccccc12)NC(=O)[C@@H](CC(=O)NO)CC(C)C [CP260] : potency 11.22 µM (inhibitor, partial curve)
* CNC(=O)[C@H](Cc1c[nH]c2ccccc12)NC(=O)[C@@H](CC(=O)NO)CC(C)C [CP192] : potency 19.01 µM (inhibitor, partial curve, poor fit)
* CNC(=O)[C@H](Cc1c[nH]c2ccccc12)NC(=O)[C@@H](CC(=O)NO)CC(C)C [CP305] : potency 19.01 µM (inhibitor, single point)
* CNC(=O)[C@H](Cc1c[nH]c2ccccc12)NC(=O)[C@@H](CC(=O)NO)CC(C)C [CP329] : potency 16.94 µM (inhibitor, single point)
* CNC(=O)[C@H](Cc1c[nH]c2ccccc12)NC(=O)[C@@H](CC(=O)NO)CC(C)C [CP266] : potency 5.358 µM (inhibitor, partial curve)
* CNC(=O)[C@H](Cc1c[nH]c2ccccc12)NC(=O)[C@@H](CC(=O)NO)CC(C)C [HB3] : potency 19.95 µM (inhibitor, single point)
* CNC(=O)[C@H](Cc1c[nH]c2ccccc12)NC(=O)[C@@H](CC(=O)NO)CC(C)C [CP265] : potency 19.95 µM (inhibitor, single point)
* CNC(=O)[C@H](Cc1c[nH]c2ccccc12)NC(=O)[C@@H](CC(=O)NO)CC(C)C [CP211] : potency 13.46 µM (inhibitor, partial curve)
* CNC(=O)[C@H](Cc1c[nH]c2ccccc12)NC(=O)[C@@H](CC(=O)NO)CC(C)C [P94_40] : potency 11.22 µM (inhibitor, single point)
* CNC(=O)[C@H](Cc1c[nH]c2ccccc12)NC(=O)[C@@H](CC(=O)NO)CC(C)C [ATS95] : potency 17.78 µM (inhibitor, single point)
* CNC(=O)[C@H](Cc1c[nH]c2ccccc12)NC(=O)[C@@H](CC(=O)NO)CC(C)C [AS120] : potency 10 µM (inhibitor, single point)

The last 2 entries again:

compound	tested on / at	potency (µM)	curve
CNC(=O)[C@H](Cc1c[nH]c2ccccc12)NC(=O)[C@@H](CC(=O)NO)CC(C)C	ATS95	17.78	inhibitor, single point
CNC(=O)[C@H](Cc1c[nH]c2ccccc12)NC(=O)[C@@H](CC(=O)NO)CC(C)C	AS120	10	inhibitor, single point

From PubChem BioAssay record AID504749 (NCATS, 2011).